Our source for the binding values is article PMC8353736.

Chains of the proteins cited; added tags and fusions are not shown. Residues count along the entry.
UniProt Q9QUK6, residues 26-835: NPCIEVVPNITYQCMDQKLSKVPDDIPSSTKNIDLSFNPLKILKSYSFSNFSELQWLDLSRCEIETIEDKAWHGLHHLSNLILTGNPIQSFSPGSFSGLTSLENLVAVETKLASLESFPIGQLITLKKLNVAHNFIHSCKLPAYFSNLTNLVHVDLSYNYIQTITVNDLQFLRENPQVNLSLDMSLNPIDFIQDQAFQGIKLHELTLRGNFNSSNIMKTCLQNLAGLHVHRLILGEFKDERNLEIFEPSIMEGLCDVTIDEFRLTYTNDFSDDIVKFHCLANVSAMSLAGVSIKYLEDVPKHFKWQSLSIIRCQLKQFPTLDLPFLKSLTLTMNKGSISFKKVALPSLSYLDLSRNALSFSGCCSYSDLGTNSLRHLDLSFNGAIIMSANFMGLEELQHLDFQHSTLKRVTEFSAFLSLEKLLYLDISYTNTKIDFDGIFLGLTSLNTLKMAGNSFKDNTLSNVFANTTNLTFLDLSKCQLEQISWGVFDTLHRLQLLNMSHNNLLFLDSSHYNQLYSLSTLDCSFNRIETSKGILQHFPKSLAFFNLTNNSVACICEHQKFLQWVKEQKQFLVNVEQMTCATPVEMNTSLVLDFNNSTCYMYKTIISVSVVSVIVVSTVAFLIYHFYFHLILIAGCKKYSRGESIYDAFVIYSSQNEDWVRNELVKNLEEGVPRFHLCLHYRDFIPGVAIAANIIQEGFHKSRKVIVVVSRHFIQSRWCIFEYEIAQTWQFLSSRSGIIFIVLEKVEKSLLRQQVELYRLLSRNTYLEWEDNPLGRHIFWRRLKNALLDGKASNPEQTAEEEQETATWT
UniProt P22366: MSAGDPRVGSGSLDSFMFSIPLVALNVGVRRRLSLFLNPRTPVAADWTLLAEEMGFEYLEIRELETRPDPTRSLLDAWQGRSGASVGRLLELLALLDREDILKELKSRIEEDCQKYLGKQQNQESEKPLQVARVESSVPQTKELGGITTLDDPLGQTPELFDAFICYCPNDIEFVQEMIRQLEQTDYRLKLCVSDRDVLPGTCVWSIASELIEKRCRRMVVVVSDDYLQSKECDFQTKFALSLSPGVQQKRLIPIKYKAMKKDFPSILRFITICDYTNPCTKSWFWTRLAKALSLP
UniProt P07356: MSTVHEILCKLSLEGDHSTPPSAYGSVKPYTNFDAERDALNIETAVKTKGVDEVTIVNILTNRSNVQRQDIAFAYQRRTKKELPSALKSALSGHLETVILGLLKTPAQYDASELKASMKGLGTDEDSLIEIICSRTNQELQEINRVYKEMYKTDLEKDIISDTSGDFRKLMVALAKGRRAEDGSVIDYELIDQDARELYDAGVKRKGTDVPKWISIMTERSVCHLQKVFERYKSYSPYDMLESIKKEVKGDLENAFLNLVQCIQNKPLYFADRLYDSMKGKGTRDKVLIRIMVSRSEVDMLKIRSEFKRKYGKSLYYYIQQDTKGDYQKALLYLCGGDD
UniProt P07355: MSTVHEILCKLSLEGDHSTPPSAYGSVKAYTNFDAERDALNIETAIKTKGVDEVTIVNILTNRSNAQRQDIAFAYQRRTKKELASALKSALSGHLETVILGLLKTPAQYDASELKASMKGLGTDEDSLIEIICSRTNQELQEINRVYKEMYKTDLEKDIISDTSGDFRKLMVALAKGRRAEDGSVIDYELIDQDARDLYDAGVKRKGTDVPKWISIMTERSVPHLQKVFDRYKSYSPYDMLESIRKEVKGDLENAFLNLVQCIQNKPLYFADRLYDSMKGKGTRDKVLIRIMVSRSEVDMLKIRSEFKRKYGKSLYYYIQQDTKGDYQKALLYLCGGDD

No constants are given. Whether binding was seen depends on the method and setting. In cells and extracts the contact can be indirect. Some binding calls cover weakened binding; strength is not graded here.

Experiment [1] addresses Toll-like receptor 4 (mouse (endogenous in neutrophils of C57BL/6 mice)) (UniProt Q9QUK6). The experiment is described as follows: co-IP; protein G Dynabeads with antibody, lysates of circulating neutrophils isolated from sham, TBI and TBI + rA2 (1 mg/kg i.p. at 2 h) mice at 12 h after TBI; Western blot; precipitating antibody not named for this panel. Background: Immunoblotting shows a protein as a band on a membrane.

Experiment [2] shares this target. The experiment is described as follows: co-IP; anti-TLR4 antibody on protein G Dynabeads, 100 ug membrane proteins of isolated mouse neutrophils treated with PBS for 1 h, 15 min at room temperature; blot with anti-AXNA2.
For experiment [3] the target is unchanged. The experiment can be described thus: co-IP; anti-TLR4 antibody on protein G Dynabeads, 100 ug membrane proteins of isolated mouse neutrophils treated with rA2 (2 ug/mL) for 1 h; blot with anti-AXNA2; only the binder purified.

Consider MyD88 (from UniProt P22366 1-296), for which the binding entry in experiment [1] is given as “binds”.

For “annexin A2 (endogenous, neutrophil membrane) (from UniProt P07356 1-339)”, in experiment [2], the binding result is “binds”.

As for “recombinant annexin A2 (from UniProt P07355 1-339)”, the binding result in experiment [3] is “binds”.

B1: TRIF (protein, UniProt Q80UF7 1-732)
chain: MDNPGPSLRGAFGILGALERDRLTHLKHKLGSLCSGSQESKLLHAMVLLALGQDTEARVSLESLKMNTVAQLVAHQWADMETTEGPEEPPDLSWTVARLYHLLAEENLCPASTRDMAYQVALRDFASQGDHQLGQLQNEAWDRCSSDIKGDPSGFQPLHSHQGSLQPPSASPAVTRSQPRPIDTPDWSWGHTLHSTNSTASLASHLEISQSPTLAFLSSHHGTHGPSKLCNTPLDTQEPQLVPEGCQEPEEISWPPSVETSVSLGLPHEISVPEVSPEEASPILPDALAAPDTSVHCPIECTELSTNSRSPLTSTTESVGKQWPITSQRSPQVPVGDDSLQNTTSSSPPAQPPSLQASPKLPPSPLSSASSPSSYPAPPTSTSPVLDHSETSDQKFYNFVVIHARADEQVALRIREKLETLGVPDGATFCEEFQVPGRGELHCLQDAIDHSGFTILLLTASFDCSLSLHQINHALMNSLTQSGRQDCVIPLLPLECSQAQLSPDTTRLLHSIVWLDEHSPIFARKVANTFKTQKLQAQRVRWKKAQEARTLKEQSIQLEAERQNVAAISAAYTAYVHSYRAWQAEMNKLGVAFGKNLSLGTPTPSWPGCPQPIPSHPQGGTPVFPYSPQPPSFPQPPCFPQPPSFPQPPSFPLPPVSSPQSQSFPSASSPAPQTPGPQPLIIHHAQMVQLGVNNHMWGHTGAQSSDDKTECSENPCMGPLTDQGEPLLETPE
B1: the binding entry in experiment [1] is given as “binds”.
